The values that follow come from doi:10.1101/2021.05.23.445342.

Chains of the proteins cited; added tags and fusions are not shown. Lines headed by an entry give the natural chain unless they say otherwise; changes in a name come on top.
UniProt P13861: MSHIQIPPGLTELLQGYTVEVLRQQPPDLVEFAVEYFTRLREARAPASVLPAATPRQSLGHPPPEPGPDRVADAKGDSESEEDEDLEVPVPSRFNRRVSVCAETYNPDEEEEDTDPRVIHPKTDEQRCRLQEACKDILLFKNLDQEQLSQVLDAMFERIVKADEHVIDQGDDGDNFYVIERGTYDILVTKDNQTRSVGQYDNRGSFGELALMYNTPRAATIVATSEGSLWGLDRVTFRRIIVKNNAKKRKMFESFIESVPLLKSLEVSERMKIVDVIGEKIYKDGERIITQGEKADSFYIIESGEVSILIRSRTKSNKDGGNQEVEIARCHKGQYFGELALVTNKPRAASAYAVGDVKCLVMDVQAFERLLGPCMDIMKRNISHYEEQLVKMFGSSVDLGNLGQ

Assay [1] deals with AKAP5c (AKAP5 300-427) (human) (UniProt P24588). In words: AUC.
The target of assay [2] is full-length AKAP5, NanoBiT fusions (AKAP5-LgBiT and AKAP5-SmBiT) (human) (UniProt P24588). In words: split reporter.

Results are given in words; binding and its absence hold for the method and conditions named. For some assays here: Binding seen in cells or lysates may run through a third protein. Some entries that bind do so weakly or less than the wild type.

Turning to “AKAP5c (AKAP5 300-427) (from UniProt P24588 300-427) (domain or fragment)”, the binding result in assay [1] was “no binding (tested: 70 µM)”.
Take “regulatory PKA subunit (R2A), NanoBiT fusion (from UniProt P13861 1-404)”: the binding entry in assay [2] is given as “binds”.
